Values from PubChem BioAssay AID1224830 (NIAID, 2016).
In all, the deposit lists about 18,000 reagents; below is a part drawn at random. Over the whole deposit, about 2,900 (16%) are marked active. 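Calls are made per well; low scores hint the gene aids the LPS response, high scores that it dampens it.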 Repeated entries: four replicate wells of each siRNA pool. Reagent sequences are not shown.

Test: 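Genes whose knock-down alters the TNF-alpha reporter response to LPS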 (primary screen)
Cells: human THP-1 monocytic leukaemia cells, TNF dual-luciferase reporter clone, PMA-differentiated to macrophage-like cells
Knock-down reagent: siRNA pool against human genes, 50 nM
Time to read-out: LPS for 4 h, given about 3 days after siRNA transfection
Conditions: bacterial LPS (TLR4 ligand), 10 ng/ml
Detection: 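Ratio of firefly to renilla light, scaled to the plate median and expressed as a robust z-score per replicate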
Scale: TNF reporter robust z-score: higher = stronger TNF reporter response to LPS
Active means: 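Each well counts as active if its z-score is over 2.8 or under -1.5; controls are left without a call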

Silencing of OR4K14 (GeneID 122740) resulted in: TNF reporter robust z-score -0.74; inactive.
For OR4K14 (GeneID 122740), the values are TNF reporter robust z-score 0.36; inactive.
After knock-down of OR4K14 (GeneID 122740) the results were TNF reporter robust z-score 0.45; inactive.
With knock-down of OR4K14 (GeneID 122740), the record shows TNF reporter robust z-score 1.16; inactive.
Depletion of OTUD4 (GeneID 54726) gave: TNF reporter robust z-score -0.34; inactive.
OTUD4 (GeneID 54726) scored TNF reporter robust z-score -0.58; inactive.
With knock-down of OTUD4 (GeneID 54726), the record shows TNF reporter robust z-score 0.44; inactive.
Depletion of OTUD4 (GeneID 54726) gave: TNF reporter robust z-score 0.07; inactive.
P2RX3 (GeneID 5024) showed TNF reporter robust z-score -0.48; inactive.
With knock-down of P2RX3 (GeneID 5024) the results were TNF reporter robust z-score 0.16; inactive.
P2RX3 (GeneID 5024) scored TNF reporter robust z-score 0.91; inactive.
With knock-down of P2RX3 (GeneID 5024), the screen gave TNF reporter robust z-score 0.45; inactive.
MSANTD2 (GeneID 79684) scored TNF reporter robust z-score -0.96; inactive.
Against MSANTD2 (GeneID 79684) the deposit lists TNF reporter robust z-score -0.28; inactive.
Against MSANTD2 (GeneID 79684), the entry reads TNF reporter robust z-score -0.38; inactive.
With knock-down of MSANTD2 (GeneID 79684), the screen gave TNF reporter robust z-score -0.35; inactive.
Depletion of ICOSLG (GeneID 23308) resulted in: TNF reporter robust z-score 0.05; inactive.
For ICOSLG (GeneID 23308), the entry reads TNF reporter robust z-score -1.27; inactive.
For ICOSLG (GeneID 23308), the values are TNF reporter robust z-score 0.1; inactive.
Against ICOSLG (GeneID 23308), the values are TNF reporter robust z-score -1; inactive.
Knock-down of EOLA2 (GeneID 541578) resulted in: TNF reporter robust z-score -0.71; inactive.
After knock-down of EOLA2 (GeneID 541578), the record shows TNF reporter robust z-score 2.28; inactive.
Knock-down of EOLA2 (GeneID 541578) gave: TNF reporter robust z-score -0.24; inactive.
After knock-down of EOLA2 (GeneID 541578) the results were TNF reporter robust z-score 0.96; inactive.
With knock-down of VPS37C (GeneID 55048), the record shows TNF reporter robust z-score -1; inactive.
VPS37C (GeneID 55048) scored TNF reporter robust z-score -0.64; inactive.
Knock-down of VPS37C (GeneID 55048) gave: TNF reporter robust z-score -0.3; inactive.
Knock-down of VPS37C (GeneID 55048) came out at: TNF reporter robust z-score -1.08; inactive.
For ZNF627 (GeneID 199692), the entry reads TNF reporter robust z-score 1.56; inactive.
Against ZNF627 (GeneID 199692), the entry reads TNF reporter robust z-score 3.35; active.
ZNF627 (GeneID 199692) showed TNF reporter robust z-score 0.38; inactive.
For ZNF627 (GeneID 199692), the entry reads TNF reporter robust z-score 2.36; inactive.
TSGA10 (GeneID 80705) scored TNF reporter robust z-score 0.26; inactive.
Against TSGA10 (GeneID 80705) the deposit lists TNF reporter robust z-score 11.3; active.
With knock-down of TSGA10 (GeneID 80705) the results were TNF reporter robust z-score 0.89; inactive.
TSGA10 (GeneID 80705) scored TNF reporter robust z-score 1.33; inactive.
With knock-down of CRTC2 (GeneID 200186) the results were TNF reporter robust z-score -0.65; inactive.
Knock-down of CRTC2 (GeneID 200186) resulted in: TNF reporter robust z-score 0.76; inactive.
CRTC2 (GeneID 200186) scored TNF reporter robust z-score 0.93; inactive.
Depletion of TMEM259 (GeneID 91304) resulted in: TNF reporter robust z-score 0.11; inactive.
With knock-down of TMEM259 (GeneID 91304), the screen gave TNF reporter robust z-score 0.25; inactive.
With knock-down of TMEM259 (GeneID 91304), the record shows TNF reporter robust z-score 0.63; inactive.
Against TMEM259 (GeneID 91304), the entry reads TNF reporter robust z-score -1.03; inactive.
For AIFM3 (GeneID 150209), the entry reads TNF reporter robust z-score 1.44; inactive.
AIFM3 (GeneID 150209) scored TNF reporter robust z-score 1.87; inactive.
AIFM3 (GeneID 150209) showed TNF reporter robust z-score 1.64; inactive.
With knock-down of AIFM3 (GeneID 150209), the record shows TNF reporter robust z-score 1.78; inactive.
HS6ST3 (GeneID 266722) showed TNF reporter robust z-score -0.44; inactive.
With knock-down of HS6ST3 (GeneID 266722), the screen gave TNF reporter robust z-score 0.06; inactive.
Against HS6ST3 (GeneID 266722) the deposit lists TNF reporter robust z-score 0.36; inactive.
Against HS6ST3 (GeneID 266722), the entry reads TNF reporter robust z-score 0.21; inactive.
After knock-down of IL3 (GeneID 3562), the screen gave TNF reporter robust z-score -1.52; active.
With knock-down of IL3 (GeneID 3562), the record shows TNF reporter robust z-score -0.88; inactive.
Silencing of IL3 (GeneID 3562) resulted in: TNF reporter robust z-score -1.38; inactive.
Knock-down of IL3 (GeneID 3562) gave: TNF reporter robust z-score -1.67; active.
PCBD2 (GeneID 84105) scored TNF reporter robust z-score 0.24; inactive.
Against PCBD2 (GeneID 84105), the values are TNF reporter robust z-score 1.14; inactive.
Against PCBD2 (GeneID 84105), the values are TNF reporter robust z-score 3.02; active.
Depletion of PCBD2 (GeneID 84105) came out at: TNF reporter robust z-score 1.13; inactive.
After knock-down of WDR62 (GeneID 284403) the results were TNF reporter robust z-score -1.1; inactive.
WDR62 (GeneID 284403) showed TNF reporter robust z-score -1.11; inactive.
For WDR62 (GeneID 284403), the entry reads TNF reporter robust z-score -1.28; inactive.
For WDR62 (GeneID 284403), the values are TNF reporter robust z-score -1.5; inactive.

Entries above whose gene name begins with I or i:
ICOSLG (GeneID 23308) | TNF reporter robust z-score: 0.05; outcome: inactive
ICOSLG (GeneID 23308) | TNF reporter robust z-score: -1.27; outcome: inactive
ICOSLG (GeneID 23308) | TNF reporter robust z-score: 0.1; outcome: inactive
ICOSLG (GeneID 23308) | TNF reporter robust z-score: -1; outcome: inactive
IL3 (GeneID 3562) | TNF reporter robust z-score: -1.52; outcome: active
IL3 (GeneID 3562) | TNF reporter robust z-score: -0.88; outcome: inactive
IL3 (GeneID 3562) | TNF reporter robust z-score: -1.38; outcome: inactive
IL3 (GeneID 3562) | TNF reporter robust z-score: -1.67; outcome: active
